These are yes or no findings as the source states them, for the method shown. In cells and extracts the contact can be indirect. Some results given as binding are weak or reduced against the parent protein; the word gives no strength.
Experiments:
Experiment in all cases: co-IP
[1] = target: BRCA1 (human (endogenous in U2OS)) (UniProt P38398)
[2] = target: Senataxin (human (endogenous in U2OS)) (UniProt Q7Z333)
[3] = target: ADAR2 (human (endogenous in U2OS)) (UniProt P78563)

Sequences of proteins named here, by UniProt entry; tags and fusion partners are left off.
UniProt P38398: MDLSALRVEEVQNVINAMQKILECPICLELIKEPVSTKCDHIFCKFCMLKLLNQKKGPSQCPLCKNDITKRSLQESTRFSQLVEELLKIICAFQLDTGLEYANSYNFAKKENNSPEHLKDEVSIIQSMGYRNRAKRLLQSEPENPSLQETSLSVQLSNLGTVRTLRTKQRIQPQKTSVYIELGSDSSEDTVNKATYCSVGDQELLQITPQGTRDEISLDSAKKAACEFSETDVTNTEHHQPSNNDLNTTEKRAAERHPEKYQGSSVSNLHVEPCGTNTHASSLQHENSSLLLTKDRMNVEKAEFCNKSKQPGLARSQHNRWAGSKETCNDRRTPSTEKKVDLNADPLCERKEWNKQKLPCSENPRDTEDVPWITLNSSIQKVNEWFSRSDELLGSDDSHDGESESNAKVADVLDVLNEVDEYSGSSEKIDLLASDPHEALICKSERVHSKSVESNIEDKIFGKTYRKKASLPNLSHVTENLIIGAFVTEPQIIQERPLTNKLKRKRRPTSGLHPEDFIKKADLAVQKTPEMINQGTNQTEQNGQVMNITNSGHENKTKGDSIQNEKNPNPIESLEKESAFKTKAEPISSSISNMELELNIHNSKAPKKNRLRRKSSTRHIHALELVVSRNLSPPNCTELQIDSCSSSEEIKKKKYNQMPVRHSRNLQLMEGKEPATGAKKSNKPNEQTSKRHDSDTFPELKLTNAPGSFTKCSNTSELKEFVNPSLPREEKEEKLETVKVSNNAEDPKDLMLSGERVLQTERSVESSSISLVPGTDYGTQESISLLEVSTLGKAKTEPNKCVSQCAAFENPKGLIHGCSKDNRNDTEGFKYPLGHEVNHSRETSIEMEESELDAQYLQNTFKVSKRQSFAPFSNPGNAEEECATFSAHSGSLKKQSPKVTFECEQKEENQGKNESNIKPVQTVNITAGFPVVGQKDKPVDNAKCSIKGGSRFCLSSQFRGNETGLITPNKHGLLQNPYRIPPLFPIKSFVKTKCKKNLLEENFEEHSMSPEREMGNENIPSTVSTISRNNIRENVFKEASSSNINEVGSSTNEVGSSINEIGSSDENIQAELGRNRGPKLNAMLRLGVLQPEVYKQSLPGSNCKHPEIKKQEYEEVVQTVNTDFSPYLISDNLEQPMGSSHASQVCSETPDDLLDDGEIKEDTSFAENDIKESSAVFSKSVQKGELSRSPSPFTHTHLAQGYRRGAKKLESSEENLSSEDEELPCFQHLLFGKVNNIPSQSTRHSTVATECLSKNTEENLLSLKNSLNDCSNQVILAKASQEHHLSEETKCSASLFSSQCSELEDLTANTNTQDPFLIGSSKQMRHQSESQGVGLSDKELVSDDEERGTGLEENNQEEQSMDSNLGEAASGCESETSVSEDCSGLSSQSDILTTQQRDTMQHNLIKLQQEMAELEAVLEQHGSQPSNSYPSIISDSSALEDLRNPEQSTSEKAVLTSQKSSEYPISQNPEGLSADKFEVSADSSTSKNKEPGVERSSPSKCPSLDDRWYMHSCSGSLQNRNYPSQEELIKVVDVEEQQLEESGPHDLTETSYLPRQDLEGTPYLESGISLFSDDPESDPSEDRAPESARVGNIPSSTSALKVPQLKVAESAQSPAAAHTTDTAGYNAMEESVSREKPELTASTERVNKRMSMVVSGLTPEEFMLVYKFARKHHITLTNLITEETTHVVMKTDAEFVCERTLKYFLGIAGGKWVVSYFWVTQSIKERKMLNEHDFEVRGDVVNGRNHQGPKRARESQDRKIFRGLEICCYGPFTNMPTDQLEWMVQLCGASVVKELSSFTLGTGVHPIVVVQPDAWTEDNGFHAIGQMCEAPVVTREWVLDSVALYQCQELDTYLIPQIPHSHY
UniProt Q7Z333: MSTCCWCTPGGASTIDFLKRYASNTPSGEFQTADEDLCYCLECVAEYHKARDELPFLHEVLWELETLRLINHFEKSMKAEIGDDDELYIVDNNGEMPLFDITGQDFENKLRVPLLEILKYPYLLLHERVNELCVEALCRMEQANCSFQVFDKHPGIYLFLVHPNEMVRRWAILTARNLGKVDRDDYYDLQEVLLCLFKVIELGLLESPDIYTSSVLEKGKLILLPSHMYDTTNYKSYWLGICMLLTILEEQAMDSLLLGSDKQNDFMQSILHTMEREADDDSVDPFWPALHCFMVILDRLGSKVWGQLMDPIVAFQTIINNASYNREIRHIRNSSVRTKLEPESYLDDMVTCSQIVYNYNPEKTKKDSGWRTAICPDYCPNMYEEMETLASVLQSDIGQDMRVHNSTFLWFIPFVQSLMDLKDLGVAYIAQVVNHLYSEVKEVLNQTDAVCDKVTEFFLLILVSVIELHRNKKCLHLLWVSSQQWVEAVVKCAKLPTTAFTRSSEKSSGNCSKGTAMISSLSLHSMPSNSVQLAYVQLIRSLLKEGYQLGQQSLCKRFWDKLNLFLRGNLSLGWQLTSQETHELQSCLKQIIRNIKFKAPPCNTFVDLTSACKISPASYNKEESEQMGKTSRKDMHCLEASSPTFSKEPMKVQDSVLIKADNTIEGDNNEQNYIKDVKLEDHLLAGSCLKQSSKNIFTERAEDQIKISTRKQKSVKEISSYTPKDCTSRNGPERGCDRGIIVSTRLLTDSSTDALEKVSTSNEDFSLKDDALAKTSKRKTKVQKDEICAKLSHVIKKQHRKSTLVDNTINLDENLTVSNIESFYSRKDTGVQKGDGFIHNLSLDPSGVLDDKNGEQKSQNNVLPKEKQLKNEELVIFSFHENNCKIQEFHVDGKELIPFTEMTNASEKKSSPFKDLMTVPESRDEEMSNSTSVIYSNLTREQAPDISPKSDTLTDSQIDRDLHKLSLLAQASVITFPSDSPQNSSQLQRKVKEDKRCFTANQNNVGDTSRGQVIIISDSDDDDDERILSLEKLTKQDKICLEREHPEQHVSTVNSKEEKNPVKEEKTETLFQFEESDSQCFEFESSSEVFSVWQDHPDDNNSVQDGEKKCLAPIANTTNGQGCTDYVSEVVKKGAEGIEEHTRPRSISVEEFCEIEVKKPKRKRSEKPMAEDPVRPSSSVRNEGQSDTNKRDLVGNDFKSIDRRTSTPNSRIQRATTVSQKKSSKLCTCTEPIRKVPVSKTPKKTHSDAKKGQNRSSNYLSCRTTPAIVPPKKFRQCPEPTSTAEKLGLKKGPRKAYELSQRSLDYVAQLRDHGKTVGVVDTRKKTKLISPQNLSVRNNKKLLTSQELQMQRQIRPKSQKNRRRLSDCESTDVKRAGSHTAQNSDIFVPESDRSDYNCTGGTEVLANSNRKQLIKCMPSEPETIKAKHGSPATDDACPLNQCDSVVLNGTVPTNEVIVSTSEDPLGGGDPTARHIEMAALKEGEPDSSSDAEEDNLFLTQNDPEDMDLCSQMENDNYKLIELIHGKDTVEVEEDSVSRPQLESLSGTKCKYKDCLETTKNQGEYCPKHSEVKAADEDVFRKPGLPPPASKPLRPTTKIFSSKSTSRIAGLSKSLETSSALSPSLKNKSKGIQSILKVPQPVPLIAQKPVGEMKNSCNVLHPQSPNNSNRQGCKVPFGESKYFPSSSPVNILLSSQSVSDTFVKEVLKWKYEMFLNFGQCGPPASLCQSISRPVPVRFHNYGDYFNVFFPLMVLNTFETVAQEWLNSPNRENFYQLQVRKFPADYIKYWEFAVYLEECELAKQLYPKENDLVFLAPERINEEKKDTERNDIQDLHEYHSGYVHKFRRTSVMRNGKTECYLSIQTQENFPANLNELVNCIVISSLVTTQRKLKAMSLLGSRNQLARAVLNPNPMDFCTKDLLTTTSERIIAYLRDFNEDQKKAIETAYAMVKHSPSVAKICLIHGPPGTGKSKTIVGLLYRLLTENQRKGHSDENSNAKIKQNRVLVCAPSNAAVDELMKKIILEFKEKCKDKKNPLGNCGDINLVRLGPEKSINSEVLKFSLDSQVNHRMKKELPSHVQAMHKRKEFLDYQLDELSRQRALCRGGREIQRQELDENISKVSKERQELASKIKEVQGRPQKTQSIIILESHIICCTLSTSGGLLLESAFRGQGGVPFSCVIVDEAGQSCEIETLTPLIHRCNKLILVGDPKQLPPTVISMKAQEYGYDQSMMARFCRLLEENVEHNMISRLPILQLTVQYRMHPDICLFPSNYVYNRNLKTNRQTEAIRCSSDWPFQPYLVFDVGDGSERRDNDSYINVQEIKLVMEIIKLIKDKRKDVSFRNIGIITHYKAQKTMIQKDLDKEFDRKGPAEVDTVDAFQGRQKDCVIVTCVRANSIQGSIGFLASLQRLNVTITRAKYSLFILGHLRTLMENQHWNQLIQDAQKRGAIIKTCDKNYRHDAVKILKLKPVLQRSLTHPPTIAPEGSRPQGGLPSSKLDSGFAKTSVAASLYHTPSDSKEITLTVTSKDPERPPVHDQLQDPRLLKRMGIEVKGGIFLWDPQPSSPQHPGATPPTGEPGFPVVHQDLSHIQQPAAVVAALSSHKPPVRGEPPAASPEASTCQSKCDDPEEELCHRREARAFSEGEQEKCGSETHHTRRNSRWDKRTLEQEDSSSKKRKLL
UniProt P13010: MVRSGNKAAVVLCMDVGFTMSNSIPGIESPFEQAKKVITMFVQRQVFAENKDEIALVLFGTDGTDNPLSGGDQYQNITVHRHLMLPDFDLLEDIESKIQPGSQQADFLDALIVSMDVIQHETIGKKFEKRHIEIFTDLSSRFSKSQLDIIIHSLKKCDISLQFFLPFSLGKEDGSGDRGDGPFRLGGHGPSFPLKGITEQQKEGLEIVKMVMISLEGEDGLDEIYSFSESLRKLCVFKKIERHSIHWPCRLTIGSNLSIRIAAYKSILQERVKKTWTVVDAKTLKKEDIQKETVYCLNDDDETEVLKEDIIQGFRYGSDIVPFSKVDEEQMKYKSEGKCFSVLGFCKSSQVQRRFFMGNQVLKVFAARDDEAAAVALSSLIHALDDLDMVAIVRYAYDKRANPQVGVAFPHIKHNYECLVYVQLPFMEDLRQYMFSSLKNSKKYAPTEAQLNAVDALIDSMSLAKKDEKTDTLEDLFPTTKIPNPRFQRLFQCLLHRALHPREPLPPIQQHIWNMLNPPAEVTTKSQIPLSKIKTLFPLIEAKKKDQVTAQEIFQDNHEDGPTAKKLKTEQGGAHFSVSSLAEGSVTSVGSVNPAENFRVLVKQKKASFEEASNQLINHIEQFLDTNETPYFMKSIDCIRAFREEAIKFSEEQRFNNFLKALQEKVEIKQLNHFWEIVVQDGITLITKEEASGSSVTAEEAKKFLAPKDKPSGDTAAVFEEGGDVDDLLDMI

| binding [1] | binding [3] | Substance | binding [2] |
| --- | --- | --- | --- |
| binds |  | ADAR2 (from UniProt P78563 1-741) (enzyme) | binds |
|  | no binding | Ku80 (from UniProt P13010 1-732) |  |
| binds | binds | Senataxin (from UniProt Q7Z333 1-2677) (enzyme) |  |
